In PubChem BioAssay AID720591 (Broad Institute, 2013):
Screen size: about 1,200 compounds; about 60 (5%) were called active. About 1% were inconclusive and are not listed.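 Rule for the calls: active = Decreasing signal and fitted IC50 at most twice the top valid tested dose; inconclusive = Bad fit or a level curve showing 30 to 70% inhibition; inactive = the rest.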 Some of the results follow. Potency and affinity values are given separately.

Chains of the proteins cited; added tags and fusions are not shown. Lines headed by an entry give the natural chain unless they say otherwise; changes in a name come on top.
UniProt Q9NXA8: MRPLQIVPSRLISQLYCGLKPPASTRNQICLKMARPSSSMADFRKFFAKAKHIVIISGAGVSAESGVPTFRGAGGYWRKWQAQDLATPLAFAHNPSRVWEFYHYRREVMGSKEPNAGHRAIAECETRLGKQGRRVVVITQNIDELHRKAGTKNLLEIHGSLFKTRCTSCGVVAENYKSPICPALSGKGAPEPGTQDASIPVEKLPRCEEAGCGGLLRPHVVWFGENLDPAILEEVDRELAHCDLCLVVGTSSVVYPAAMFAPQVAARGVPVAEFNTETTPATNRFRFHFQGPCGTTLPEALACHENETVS

These compounds were tested against NAD-dependent protein deacylase sirtuin-5, mitochondrial (Homo sapiens) (UniProt Q9NXA8) (assay: SIRT5 desuccinylase inhibitors, dose response, biochemical, fluorescence imaging, cherry-pick, set 5 (AID 720591;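 note: 0% = median of neutral control wells and -100% = median of positive control wells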)). Details: Purified SirT5, succinyl-peptide AMC, trypsin-coupled fluorescence; at 15 µM (top of the series) unless noted.

SMILES	activity change, negative = inhibition
Cc1c(Cl)cccc1NC(=O)Cc1cccs1	inactive: 1.68%
COc1ccc(S(=O)(=O)NCCc2c[nH]c3ccccc23)cc1OC	inactive: 8.46%
Cc1cccc(NC(=O)Cn2nnc(-c3cccs3)n2)c1C	inactive: 2.31%
Cc1cccc(C)c1NC(=O)C1=C(O)c2sccc2N(C)S1(=O)=O	inactive: 30.5%
CN(C)C(=O)c1ccc(NC(=O)c2sccc2-c2ccccc2)cc1	inactive: 12.8%
COc1cc2[nH]c(=O)n(CCCCCC(=O)N3CCN(c4ccccn4)CC3)c(=O)c2cc1OC	inactive: -9.83%
Cc1cccc(-c2noc(CN(C)C(=O)c3ccco3)n2)c1	inactive: 37.3%
Cc1ccsc1C(=O)NNC(=O)CCN1CCN(c2ccccc2)CC1	inactive: -24.2%
COc1cccc(OC)c1OCCN1CCCC1	inactive: -30.8%
COc1cccc(C2CC(c3ccc(Br)cc3)=NN2C(=O)c2ccncc2)c1OC (stereo not given)	inactive: -5.7%
O=C(NC1CC1)C1CCN(C2CCN(C(=O)CC3=CCCCC3)CC2)CC1	inactive: 12.9%
CC(=O)N1N=C(c2cccc(NS(C)(=O)=O)c2)CC1c1cccs1 (stereo not given)	inactive: -25.8%
COc1ccc(C)cc1S(=O)(=O)n1ccnc1C	inactive: 0.337%
CCOc1ccc2nc(NC(=O)CS(=O)(=O)c3ccc(C)cc3)sc2c1	inactive: -22.3%
Cc1cccc(Cn2c(N(C)Cc3ccccc3)nc3c2c(=O)[nH]c(=O)n3C)c1	inactive: -16.1%
CC1=C(C(=O)N(C(C)C)C(C)C)CC(CC(=O)NCCCN(C)C)C(=O)N1CCC1=CCCCC1 (stereo not given)	inactive: 23.7%
O=C(CN1CCC(c2nc3ccccc3s2)CC1)N1CCCCC1	inactive: -27.1%
CCCn1c(SCC(=O)N2CCCC(C)C2)nnc1-c1ccccn1 (stereo not given)	inactive: -27.2%
COc1ccc(C(C)=O)cc1CSc1nnc(Nc2c(C)cccc2C)s1	inactive: 1.82%
CCN(CC(=O)Nc1ccc(NC(C)=O)cc1)C(=O)c1ccc(COc2ccc(C(C)(C)C)cc2)cc1	inactive: -1.48%
Cc1ccc(S(=O)(=O)c2nc(Cc3ccccc3)oc2N2CCOCC2)cc1	inactive: -13.3%
O=S1(=O)CC(N2CCC(c3ccccc3)CC2)CN1Cc1ccccc1 (stereo not given)	inactive: 13.4%
CC(C)(C)OC(=O)NOCC(=O)N(CC(=O)c1ccccc1)Cc1ccccc1	inactive: -25.6%

SMILES	activity change, negative = inhibition
Cc1cc(OCc2nnc(SC(C)C(=O)O)n2Cc2ccccc2)ccc1Cl (stereo not given)	inactive: -29.3%
Cc1ccc(CNC(=O)C2CCCN(c3cnccn3)C2)cc1 (stereo not given)	inactive: -15.6%
O=C(Nc1nccs1)c1cc2cc(Cl)ccc2oc1=O	inactive: -11.3%
Cn1cc(Br)c(C(=O)Nc2c(F)c(F)c(F)c(F)c2F)n1	inactive: -22.1%
C[C@H](NC(=O)OCc1ccccc1)C(=O)NNC(=O)[C@H](C)NC(=O)OCc1ccccc1	inactive: -29.1%
CCOc1ccc2ccccc2c1C(=O)N1CCN(c2ccccc2)CC1	inactive: -3.77%
O=C(O)c1ccc2nc(-c3ccco3)c(-c3ccco3)nc2c1	inactive: -0.798%
Nc1cccc(-c2csc(-n3ncc(C(=O)O)c3C(F)(F)F)n2)c1	inactive: -36.1%
CC1CCCCN1CCCNC(=O)Cn1c(=O)c2cccn2c2ccccc21 (stereo not given)	inactive: 13.2%
Cc1cc2c(c(=O)o1)C(CCC1CCCCC1)C(C#N)=C(N)O2 (stereo not given)	inactive: 17%
Cc1ccc(S(=O)(=O)N(Cc2cc3ccccc3[nH]c2=O)CC2CCCO2)cc1 (stereo not given)	inactive: -3.13%
COc1ccc(C2=Nn3c(nnc3-c3ccccc3F)SC2)cc1OC1CCCC1	inactive: -13%
Cc1ccc(-c2noc(CN(C)C(=O)c3ccc(Br)o3)n2)cc1	inactive: -17.4%
CCN(CC)CCNC(=O)CCN1N=C(c2ccccc2)CCC1=O	inactive: -13.5%
O=C(CN1C(=O)COc2ccccc21)NNC(=O)Nc1ccccc1F	inactive: -3.38%
COc1ccc(-c2ccccc2)cc1NC(=O)C1(C)CCN1C(=O)C(C)C (stereo not given)	inactive: 6.61%
CCOC(=O)c1cnc2ccc(OCC)cc2c1NCCCN1CCOCC1	inactive: 11.5%
Cc1ccc(C(C(=O)NC2CCCC2)N(C(=O)c2csnn2)c2ccccc2)o1 (stereo not given)	inactive: 7.81%
COC(=O)C1=C(C)Nc2c(c(=O)n(C)c(=O)n2C)C1c1cccc(O)c1 (stereo not given)	inactive: 9.11%
CC1CCN(C(=O)C2CCC(=O)N(Cc3ccc(Cl)cc3)C2)CC1 (stereo not given)	inactive: -10.3%
C[C@H](CCC(=O)OCc1cn(CC(=O)c2ccc(O)cc2)nn1)C1CC[C@H]2[C@@H]3CC[C@@H]4C[C@H](O)CC[C@]4(C)[C@H]3C[C@H](O)[C@]12C (stereo not given in full)	inactive: -22%
COc1ccccc1CNC(=O)C(NS(=O)(=O)c1cccc2nsnc12)C(C)C (stereo not given)	inactive: 0.141%
CC(C)(C)n1nnnc1C(c1cccnc1)N1CCOCC1 (stereo not given)	inactive: -20.8%

Molecules above that contain bromine, in the order listed:
SMILES	activity change, negative = inhibition
COc1cccc(C2CC(c3ccc(Br)cc3)=NN2C(=O)c2ccncc2)c1OC (stereo not given)	inactive: -5.7%
Cn1cc(Br)c(C(=O)Nc2c(F)c(F)c(F)c(F)c2F)n1	inactive: -22.1%
Cc1ccc(-c2noc(CN(C)C(=O)c3ccc(Br)o3)n2)cc1	inactive: -17.4%

More records.

SMILES	activity change, negative = inhibition
Cc1ccc(S(=O)(=O)Nc2ccc(Nc3ccccc3)cc2)cc1	inactive: 6.43%
CCCCCCCCN1[C@@H](CC(=O)O)c2cc(C(F)(F)F)ccc2S1(=O)=O	inactive: -14.3%
Cc1ccc(Oc2ccc(Cl)cc2N)cc1	inactive: -1.7%
c1ccc(NCc2cccc3ccccc23)nc1	inactive: -4.07%
COc1ccccc1S(=O)(=O)N1CCN(S(=O)(=O)c2ccccc2C#N)CC1	inactive: 22%
CCCCc1c(C)nc2ccc(Br)cc2c1SCCC#N	inactive: -27.5%
O=C(CCN1C(=O)C2C3C=CC(C3)C2C1=O)Oc1ccc2ccccc2c1 (stereo not given)	inactive: 16%
NC(=O)c1ccc(NC(=O)CCCc2nc(-c3ccccc3Cl)no2)cc1	inactive: -28.1%
CC(C)CC1C(=O)N(Cc2cn(CC3CCCCC3)nn2)CCS(=O)(=O)N1Cc1ccc(-c2ccc(Cl)c(Cl)c2)cc1 (stereo not given)	inactive: -27.8%
COc1cccc(C(=O)Nc2ccc(C(F)(F)F)n(C)c2=O)c1	inactive: -5.85%
CCOC(=O)c1c(C)[nH]c(C)c1C(=O)COC(=O)c1cc2ccccc2cc1O	inactive: 7.04%
O=C(Nc1ccnn1C1CCN(C2CCCC2)CC1)c1ccccc1Cl	inactive: -23.2%
Cc1cc(OCc2cc(C(=O)NC(C)c3c(C)nn(C)c3C)no2)cc(C)c1Cl (stereo not given)	inactive: -14%
COc1cccc(C2Nc3ccc4ccccc4c3C3=C2C(=O)CCC3)c1O (stereo not given)	inactive: -24.5%
CCc1nonc1NC(=O)c1oc2ccc(Cl)cc2c1C	inactive: 9.41%
Cc1ccc(C(=O)Nc2ncc(C)s2)o1	inactive: -20%
CCN(Cc1nc(-c2cccc(C)c2)no1)C(=O)c1ccco1	inactive: -8.96%
CS(=O)(=O)N(CC(=O)N1CCCC1)c1cccc(F)c1	inactive: -28.6%
CCN(C[C@H]1N[C@@](Cc2ccccc2)(C(=O)OC)[C@H]2C(=O)N(C)C(=O)[C@@H]12)C(=O)Nc1ccc(C(F)(F)F)cc1	inactive: 3.65%
Cc1cc(NC(=O)CCC(=O)N(Cc2ccco2)C(C(=O)NC2CCCCC2)c2ccccc2)no1 (stereo not given)	inactive: -34.1%
COc1ccccc1-c1nnc(NC(=O)c2ccc3ncsc3c2)o1	inactive: -30.5%
CSc1nc(N)nc2c1ncn2CC(=O)NCC1CCCO1 (stereo not given)	inactive: 5.49%
CNC(=O)CSc1nnc(-c2ccco2)n1-c1ccccc1	inactive: 11.6%

SMILES	activity change, negative = inhibition
Cc1ccc(S(=O)(=O)N(C)c2ccc(N)cc2)cc1	inactive: -14.2%
CCCc1ccc(-c2cc(NC(=O)CSc3nnc(N)s3)n(-c3ccccc3)n2)cc1	inactive: -9.91%
CN(CC(=O)N1CCN(C2CCCCC2)CC1)S(=O)(=O)c1cccc2nsnc12	inactive: -0.3%
COc1ccc(NC(=O)C2CC(=O)n3ncnc3N2)cc1 (stereo not given)	inactive: 15.5%
O=C(Nc1nc(-c2ccc(F)c(F)c2)cs1)c1ccc(OCC2CCCO2)cc1 (stereo not given)	inactive: -9.16%
Nc1[nH]c(C(=O)c2ccccc2)c(-c2ccc(Cl)c(F)c2)c1C(=O)NCCc1c[nH]c2ccccc12	inactive: -18%
CC(C(=O)O)N(C(=O)c1ccccc1)c1ccc(F)cc1 (stereo not given)	inactive: -1.97%
Cc1ccc(S(=O)(=O)N(C)CC(=O)N2CCN(Cc3ccc4c(c3)OCO4)CC2)cc1	inactive: -31.6%
CCOC(=O)c1c(C)[nH]c(C)c1C(=O)COC(=O)c1c(OC)cccc1OC	inactive: 14.1%
CC1=NCCN1S(=O)(=O)c1c(C(C)C)cc(C(C)C)cc1C(C)C	inactive: -14.9%
CCCCCCn1c(=O)n2n(c1=O)[C@@H]1CN(S(=O)(=O)c3ccc(C)cc3)C[C@]1(O)[C@@H](OC(=O)NCc1ccccc1)C2	inactive: 11.7%
CC1CCN(S(=O)(=O)c2ccc(C(=O)N(C)C3CCS(=O)(=O)C3)cc2)CC1 (stereo not given)	inactive: -4.28%
CCN1CCN(c2nc3c(c(=O)[nH]c(=O)n3C)n2Cc2ccccc2)CC1	inactive: 13.4%
CCOc1ccc(CN2CCN(C(=O)c3cccc(F)c3)CC2)cc1	inactive: 8.06%
CCCCNC(=O)CC1C(=O)N(Cc2ccccc2)C(C)c2nc3ccccc3n21 (stereo not given)	inactive: -23.2%
O=C(COc1ccc(Cl)cc1Cl)Nc1ccc(CN2CCCCC2)cc1	inactive: -36%
CC(C)(C)C(=O)Oc1cccc(Nc2ncnc3ccccc23)c1	inactive: -14.3%
Cc1ccc(NC(=O)COCC(=O)Nc2ccc(F)cc2)cc1	inactive: 36%
COc1ccc(CN2CCN(C3CCC3)CC2CCO)c(C)c1C (stereo not given)	inactive: -18.5%
Oc1ccc(-c2nccc(-c3ccc(Cl)cc3Cl)n2)cc1	inactive: -31.7%
O=C(NCC(c1ccco1)N1CCN(c2ccccc2F)CC1)C1CCCCC1 (stereo not given)	inactive: 2.44%
